Mtb growth Cornell: 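Whole-cell assay for inhibitors of Mycobacterium tuberculosis growth, labelled Cornell in the record; the read-out is not stated. The concentration is filed as 10 mM, unlikely as a test dose, so the dose is not known. The record gives no direction; compounds strong in two other growth screens of this library score well above the rest, so higher reads as stronger inhibition. Size under these conditions: about 53,000 compounds, about 900 of them at 50% or above in at least one test.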
Mtb heat-shock: 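Assay on Mycobacterium tuberculosis, filed only as a heat shock assay from Cornell; the read-out is not stated. The concentration is filed as 10 mM, unlikely as a test dose, so the dose is not known. Higher reads as stronger inhibition (inferred: compounds with an IC50 in retests scored well above the rest). Size under these conditions: about 69,000 compounds, about 930 of them at 50% or above in at least one test.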

Values are the deposited “Percent Effect”, in %. How 0% and 100% were set is not recorded. Most values in the screen are low, and negative values occur. Compounds were drawn at random from those tested, without regard to their results. A dash means the value is not listed here; it may have been measured.

Compound	Mtb growth Cornell	Mtb heat-shock
Cc1cccc(-c2ccc(C(=O)N3CCSCC3)c(=O)[nH]2)c1	25.49	96.07
Cc1ncc(CNC(=O)NCc2c(F)cccc2OC(F)F)s1	-	-1.422
CC(C)CN(Cc1cnn(C)c1)C(=O)C1COc2ccccc2C1 (stereo not given)	-	-25.6
Clc1ccc2cccnc2c1CN1CCCCC1Cn1cncn1 (stereo not given)	-	36.55
COc1ccc(C(NCc2ccc(C#N)cc2)C2CC2)cc1.Cl (stereo not given)	-15.68	-6.679
CCS(=O)(=O)c1ccc2oc([C@H]3CCN(Cc4ccncc4)C3)nc2c1	-4.561	-22.55
COc1cc(F)c(C(=O)N2C[C@@H](CN(C)CCO)[C@@H](CO)C2)c(F)c1	-2.234	-5.717
COC(=O)C(CNC(=O)Nc1nncs1)Cc1ccc(F)cc1 (stereo not given)	-8.926	-18.4
CC(NC(=O)Cn1cccnc1=O)c1ccc(OC(F)(F)F)cc1 (stereo not given)	-	14.87
O=C(NCc1ccc2c(c1)OCO2)N1CCCC2(C1)OCCO2	25.18	-4.498
O=C(Nc1cc(C(F)(F)F)c[nH]c1=O)N1CCOCC1	-	-1.729
CNC(=O)C1CCN(Cc2cc3c(cc2O)CCC3)CC1	-10.55	27.26
COc1cccc(CN2CCCCCC2c2cccs2)c1OC (stereo not given)	35.04	13.75
[H][C@@]12CN(Cc3ccccc3SC)C[C@]1(C(=O)O)CN(CC1CC1)C2=O	-	1.749
Cc1noc(C2CCC3(CCN(C(=O)c4cc(C5CC5)on4)CC3)O2)n1 (stereo not given)	-	-3.205
COc1ccc(C[C@H]2CN(c3nnc(C)s3)CC[C@H]2OC)cc1.O=C(O)C(F)(F)F	38.36	-15.28
COc1ccc(CNC(=O)N(Cc2ccc(F)cc2F)C2CC2)cn1	16.82	-0.4068
Fc1cc(CNCCn2cccn2)ccc1-n1cncn1	5.314	1.663
CC(C)CN1CCC2(CCN(CC3CC3)CC2)C1=O.O=C(O)C(F)(F)F	15.58	-15.14
CCCc1nc(NCCCO)c2c(n1)c(C)nn2CC	-	24.94
CCc1ccc(CN2CCN(c3ncc(Cl)cn3)CC2)nc1	55.1	68.7
CC(Cn1cccn1)NCc1nc(-c2cccnc2)no1 (stereo not given)	23.34	-36.7
O=C(NC1(c2nccs2)CCCC1)c1cc(C2CC2)on1	-3.797	7.107
[H][C@@]12CCN(Cc3cnn(C)c3)C[C@@]1([H])[C@H](C(=O)NCc1ccco1)CCO2	7.889	10.49
Cl.Cn1ccnc1N1CCN(C(=O)Cc2ccc(Cl)cc2)CC1	-	-26.02
CC(C)Oc1ncnc2c1CCN(c1cc(C(F)(F)F)ncn1)CC2	-0.3265	-4.502
NC(=O)C(NC(=O)CCc1ccc(Cl)s1)c1ccccc1 (stereo not given)	11.1	2.355
CC(NC(=O)NCCCn1cccn1)c1ccc2c(c1)OCCCO2 (stereo not given)	-	9.665
Cc1cc(C(F)(F)F)n2nc(C3CCN(S(C)(=O)=O)CC3)cc2n1	2.147	-7.004
CN(CCCNC(=O)N1CCCC1c1ccsc1)c1ccccn1 (stereo not given)	-20.57	-31.45
CCCn1nc(C(=O)N(C)Cc2cnn(C)c2)ccc1=O	12	-1.067
Cc1cc(-c2ccnn2C)nc(C2CCCN(S(C)(=O)=O)C2)n1 (stereo not given)	51.61	12.81
O=C(CCc1ccco1)NCC1CCCN1c1cccnn1 (stereo not given)	-13.42	12.16
[H][C@]12CCCCN1CCC[C@@]2(O)Cn1cnc(Cl)c1Cl	-	7.051
CCc1nnsc1C(=O)NCCC1CCCN(C(C)C)C1 (stereo not given)	-	-6.12
[H][C@@]12CCCO[C@]1([H])[C@@H](NS(C)(=O)=O)CN2C(=O)c1cscn1	13.78	-7.446
CC(NC(=O)c1coc(COc2cccc(F)c2)n1)c1nnc(N)s1 (stereo not given)	4.767	-12.61
Cc1nn(C)c(C)c1-c1ccc(=O)n(C(C)C(=O)NC(C)(C)C)n1 (stereo not given)	3.968	7.182
COC(=O)c1ccc(NC(=O)NC2CCc3[nH]ncc3C2)cc1 (stereo not given)	27.09	-22.29
Cc1ccc(NCc2cncc3c2CCN(C(=O)C2CC=CC2)C3)nn1.Cl	19.99	3.438
CCOCC1CN(C(=O)Cc2ccccn2)Cc2cn(CC)nc21 (stereo not given)	16.68	-0.3635
Cc1occc1C(=O)N1CCC2(CCCN(Cc3nccs3)C2)C1.O=C(O)C(F)(F)F (stereo not given)	-2.894	-17.75
O=C(C1CCC1)N1CCC(C2CCN(Cc3ccc(Cl)cc3)C2)CC1 (stereo not given)	40.67	17.72
Fc1ccccc1OCCN1CCCCC1Cn1cncn1 (stereo not given)	-	-5.063
Cc1ccc(-c2cn3c(n2)CO[C@@H](CNCc2cnn(C)c2)C3)cc1	-20.11	-29.42
COc1ccc(CN2CCN(CCn3ccnc3)CC2)cc1F	-5.782	-0.1512
Cc1nc(N2CCOCC2)nc2c1CN(C(=O)C(C)C)CC2	4.153	-11.9
O=C(CC1CC1)N1CCC2(COCc3cnc(-c4ccccc4)nc32)C1 (stereo not given)	-4.095	-2.383
COCCN1CCCC(O)(CN2CCN(c3cnccn3)CC2)C1=O (stereo not given)	-	-4.362
Cn1nccc1CNC(=O)CCn1nc(C(F)(F)F)cc1C1CC1	0.5628	-1.606
N#Cc1ccc(CN2CCCCC2Cn2cncn2)c(F)c1 (stereo not given)	-	-33.73
CN(C)CCN1CCC2(CCN(C(=O)c3ccncc3)CC2)C1=O.O=C(O)C(F)(F)F.O=C(O)C(F)(F)F	34.59	6.958
Cn1c(CN2CCCC2)nnc1C1CCCN(C(=O)C2CCOCC2)C1 (stereo not given)	-	-3.457
O=C(CCCc1ccccn1)N1CCOc2ccc(F)cc21	11.58	-0.2368
Cc1nc(C2CCCN2CCCS(N)(=O)=O)no1 (stereo not given)	-	-24.9
CCCOc1cc(C)ccc1NC(=O)NCCC(=O)N(C)C	-73.68	-9.475
CCS(=O)(=O)N1CCOC2(COCCN(C(C)=O)C2)C1 (stereo not given)	-48.68	-18.24
COc1cccc(CCNC(=O)CCS(=O)(=O)C2CCCC2)c1	10.54	13.65
CC(=O)c1cccc(S(=O)(=O)NCC(C)(O)c2cccs2)c1 (stereo not given)	29.32	6.195
Cc1nn(C)c2nc(N3CCNC(=O)C3C(C)C)sc12 (stereo not given)	-51.18	7.693

Some entries from above, unchanged:

N#Cc1ccc(CN2CCCCC2Cn2cncn2)c(F)c1 (stereo not given) read Mtb heat-shock: -33.73%.
O=C(CCCc1ccccn1)N1CCOc2ccc(F)cc21 read Mtb growth Cornell: 11.58%; Mtb heat-shock: -0.2368%.
Cc1cccc(-c2ccc(C(=O)N3CCSCC3)c(=O)[nH]2)c1 read Mtb growth Cornell: 25.49%; Mtb heat-shock: 96.07%.
COc1cccc(CCNC(=O)CCS(=O)(=O)C2CCCC2)c1 read Mtb growth Cornell: 10.54%; Mtb heat-shock: 13.65%.
CC(NC(=O)c1coc(COc2cccc(F)c2)n1)c1nnc(N)s1 (stereo not given) read Mtb growth Cornell: 4.767%; Mtb heat-shock: -12.61%.
CC(C)Oc1ncnc2c1CCN(c1cc(C(F)(F)F)ncn1)CC2 read Mtb growth Cornell: -0.3265%; Mtb heat-shock: -4.502%.
Cc1nc(C2CCCN2CCCS(N)(=O)=O)no1 (stereo not given) read Mtb heat-shock: -24.9%.

Source: ChEMBL document CHEMBL3988442, “University of Dundee, Small-Polar-MMV Screening Library” (2021).